Laboratory results taken from patent US12172978B2, “Ether compound and harmful arthropod-controlling composition containing same” (SUMITOMO CHEMICAL COMPANY, LIMITED, priority 2019, dated 2024).
Some entries share one result that the patent states for a list of compounds. At least one structure is not confirmed: it was looked up by name or label, or the drawing left a doubt.

Columns and labels:
Format in all cases: in vivo
[1] = system: diamondback moth (Plutella xylostella); experiment: Test Example 4: diamondback moth test on sprayed cabbage (test method 4); conditions: 500 ppm, sprayed 20 mL/seedling on cabbage, second instar larvae, after 5 days, 25° C.
[2] = system: common house mosquito (Culex pipiens pallens); experiment: Test Example 7: common house mosquito larvae test in diluted solution (test method 7); conditions: 3.5 ppm, last instar larvae in diluted solution, after 1 day, 25° C.
[3] = system: Western corn rootworms (Diabrotica virgifera virgifera); experiment: Test Example 8: Western corn rootworm test on immersed corn seedling (test method 8); conditions: 500 ppm, corn seedling immersed 30 seconds, second instar larvae, after 5 days, 25° C.
[4] = system: cotton worm (Spodoptera litura); experiment: Test Example 5: cotton worm test on sprayed cabbage (test method 5); conditions: 500 ppm, sprayed 20 mL/seedling on cabbage, third instar larvae, after 6 days, 25° C.

Structure (SMILES)	mortality of insects [3] [%]	mortality of insects [4] [%]	other results
CCS(=O)(=O)c1cc(C2CC2)cnc1Oc1cc(OCC(F)(F)C(F)(F)F)ncn1 [compound 15]			mortality of insects [1]: ≥ 80%; mortality of insects [2]: ≥ 91%
CCS(=O)(=O)c1cc(C(F)(F)F)cnc1Oc1cc(OCC(F)(F)C(F)(F)F)ccn1 [compound 2]	≥ 80		
CCS(=O)(=O)c1cc(C2(C#N)CCCC2)cnc1Oc1cc(OCC(F)(F)C(F)(F)F)ccn1 [compound 19]		≥ 80	
CCS(=O)(=O)c1cc(C2(C#N)CC2)cnc1Oc1cc(OCC(F)(F)C(F)(F)F)ccn1 [compound 17]	≥ 80		
CC[S+]([O-])c1cccnc1Oc1cc(OCC(F)(F)C(F)(F)F)ccn1 (stereo not drawn) [compound 5]		≥ 80	
